Test results from paper PMC4604347, “Local regulation of the Srs2 helicase by the SUMO-like domain protein Esc2 promotes recombination at sites of stalled replication”.
For some of these results: The comparison behind a weaker result is the experiment's own reference, which may not be listed here. Tags and fusion partners may be left off the protein sequences shown. For at least one entry, the source does not settle the construct or the ends of the probe. At least one verdict rests on a figure or table, not on a statement of the authors.

Experiments:
Test in all cases: EMSA
[1] = target: T1, Esc2 (Saccharomyces cerevisiae) (UniProt Q06340); conditions: 7 nM DNA, 7 nM fluorescein-labeled DNA, 10 min at 37 C, recombinant protein, residues 1-456, protein details: GST tag removed
T1 sequence (looked up): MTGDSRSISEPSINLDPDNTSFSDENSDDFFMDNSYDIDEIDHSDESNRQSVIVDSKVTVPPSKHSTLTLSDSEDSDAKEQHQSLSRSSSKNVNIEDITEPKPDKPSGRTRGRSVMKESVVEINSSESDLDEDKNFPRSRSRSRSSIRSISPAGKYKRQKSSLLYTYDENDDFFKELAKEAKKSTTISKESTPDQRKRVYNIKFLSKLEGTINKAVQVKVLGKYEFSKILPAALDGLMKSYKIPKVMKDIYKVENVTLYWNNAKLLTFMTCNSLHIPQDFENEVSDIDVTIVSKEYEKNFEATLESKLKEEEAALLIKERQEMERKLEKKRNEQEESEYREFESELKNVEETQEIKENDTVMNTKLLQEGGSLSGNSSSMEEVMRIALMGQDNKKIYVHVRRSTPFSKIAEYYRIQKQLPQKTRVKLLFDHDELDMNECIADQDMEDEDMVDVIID

[2] = target: T2, Esc2 1-294 (Saccharomyces cerevisiae) (UniProt Q06340); conditions: highly proficient, 7 nM DNA, 0-1000 nM protein, 7 nM fluorescein-labeled DNA, 10 min at 37 C, recombinant protein, residues 1-294, label: 5'-fluorescein on strand 1, folded or branched DNA
T2 sequence (looked up): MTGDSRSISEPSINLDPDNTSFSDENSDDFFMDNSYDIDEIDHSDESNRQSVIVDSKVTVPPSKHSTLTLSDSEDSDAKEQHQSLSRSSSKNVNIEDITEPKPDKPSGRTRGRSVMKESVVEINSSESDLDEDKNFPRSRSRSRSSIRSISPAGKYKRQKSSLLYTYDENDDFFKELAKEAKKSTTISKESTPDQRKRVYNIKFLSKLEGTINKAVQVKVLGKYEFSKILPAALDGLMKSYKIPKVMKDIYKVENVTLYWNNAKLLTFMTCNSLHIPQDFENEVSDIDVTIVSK

[3] = target: T3, Esc2 1-374 (Saccharomyces cerevisiae) (UniProt Q06340); conditions: highly proficient, 7 nM DNA, 0-1000 nM protein, 7 nM fluorescein-labeled DNA, 10 min at 37 C, recombinant protein, residues 1-374, label: 5'-fluorescein on strand 1, folded or branched DNA
T3 sequence (looked up): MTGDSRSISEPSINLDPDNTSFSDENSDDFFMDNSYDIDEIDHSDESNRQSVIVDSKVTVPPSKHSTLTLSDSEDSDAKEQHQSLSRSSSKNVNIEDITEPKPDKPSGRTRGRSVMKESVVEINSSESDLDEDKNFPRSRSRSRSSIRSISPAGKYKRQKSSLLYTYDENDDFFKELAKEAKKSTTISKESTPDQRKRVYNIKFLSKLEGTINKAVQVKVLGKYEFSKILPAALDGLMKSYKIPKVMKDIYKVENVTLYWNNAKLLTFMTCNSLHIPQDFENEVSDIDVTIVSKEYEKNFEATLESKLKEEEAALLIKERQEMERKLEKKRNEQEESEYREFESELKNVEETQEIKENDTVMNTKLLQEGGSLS

AGCTACCATGCCTGCACGAATTAAGCAATTCGTAATCATGGTCATAGCT (double strand) [dsDNA (oligos 18, 19)]
binding result ([1]; bound, less preferred than flap and fork, label: 5'-fluorescein on strand 1): binds more weakly

AGCTACCATGCCTGCACGAATTAAGCAATTCGTAATCATGGTCATAGCT / CTACAGTTCGTCAGGATTCC / AATTCGTGCAGGCATGGTAGCT / AGCTATGACCATGATTACGAATTGCTTGGAATCCTGACGAACTGTAG [Fork (oligos 18, 20, 21, 22)]
binding result [2]: binds
binding result [3]: binds

AGCTACCATGCCTGCACGAATTAAGCAATTCGTAATCATGGTCATAGCT [ssDNA (oligo 18)]
binding result ([1]; little affinity, label: 5'-fluorescein, single-stranded DNA): binds more weakly
